Results as given in publication PMC8910852.

B1: AtGL3 (protein, UniProt Q9FN69 1-637)
chain: MATGQNRTTVPENLKKHLAVSVRNIQWSYGIFWSVSASQSGVLEWGDGYYNGDIKTRKTIQASEIKADQLGLRRSEQLSELYESLSVAESSSSGVAAGSQVTRRASAAALSPEDLADTEWYYLVCMSFVFNIGEGMPGRTFANGEPIWLCNAHTADSKVFSRSLLAKSAAVKTVVCFPFLGGVVEIGTTEHITEDMNVIQCVKTSFLEAPDPYATILPARSDYHIDNVLDPQQILGDEIYAPMFSTEPFPTASPSRTTNGFDQEHEQVADDHDSFMTERITGGASQVQSWQLMDDELSNCVHQSLNSSDCVSQTFVEGAAGRVAYGARKSRVQRLGQIQEQQRNVKTLSFDPRNDDVHYQSVISTIFKTNHQLILGPQFRNCDKQSSFTRWKKSSSSSSGTATVTAPSQGMLKKIIFDVPRVHQKEKLMLDSPEARDETGNHAVLEKKRREKLNERFMTLRKIIPSINKIDKVSILDDTIEYLQELERRVQELESCRESTDTETRGTMTMKRKKPCDAGERTSANCANNETGNGKKVSVNNVGEAEPADTGFTGLTDNLRIGSFGNEVVIELRCAWREGVLLEIMDVISDLHLDSHSVQSSTGDGLLCLTVNCKHKGSKIATPGMIKEALQRVAWIC
B2: AtEGL3 (protein, UniProt Q9CAD0 1-596)
chain: MATGENRTVPDNLKKQLAVSVRNIQWSYGIFWSVSASQPGVLEWGDGYYNGDIKTRKTIQAAEVKIDQLGLERSEQLRELYESLSLAESSASGSSQVTRRASAAALSPEDLTDTEWYYLVCMSFVFNIGEGIPGGALSNGEPIWLCNAETADSKVFTRSLLAKSASLQTVVCFPFLGGVLEIGTTEHIKEDMNVIQSVKTLFLEAPPYTTISTRSDYQEIFDPLSDDKYTPVFITEAFPTTSTSGFEQEPEDHDSFINDGGASQVQSWQFVGEEISNCIHQSLNSSDCVSQTFVGTTGRLACDPRKSRIQRLGQIQEQSNHVNMDDDVHYQGVISTIFKTTHQLILGPQFQNFDKRSSFTRWKRSSSVKTLGEKSQKMIKKILFEVPLMNKKEELLPDTPEETGNHALSEKKRREKLNERFMTLRSIIPSISKIDKVSILDDTIEYLQDLQKRVQELESCRESADTETRITMMKRKKPDDEEERASANCMNSKRKGSDVNVGEDEPADIGYAGLTDNLRISSLGNEVVIELRCAWREGILLEIMDVISDLNLDSHSVQSSTGDGLLCLTVNCKHKGTKIATTGMIQEALQRVAWIC
B3: AtTTG1 (protein, UniProt Q9XGN1 1-341)
chain: MDNSAPDSLSRSETAVTYDSPYPLYAMAFSSLRSSSGHRIAVGSFLEDYNNRIDILSFDSDSMTVKPLPNLSFEHPYPPTKLMFSPPSLRRPSSGDLLASSGDFLRLWEINEDSSTVEPISVLNNSKTSEFCAPLTSFDWNDVEPKRLGTCSIDTTCTIWDIEKSVVETQLIAHDKEVHDIAWGEARVFASVSADGSVRIFDLRDKEHSTIIYESPQPDTPLLRLAWNKQDLRYMATILMDSNKVVILDIRSPTMPVAELERHQASVNAIAWAPQSCKHICSGGDDTQALIWELPTVAGPNGIDPMSVYSAGSEINQLQWSSSQPDWIGIAFANKMQLLRV

Molecular target: FtMYB3 (Tartary buckwheat (Fagopyrum tataricum)) (UniProt F5BUC8)
Test: two-hybrid; FtMYB3 in pGADT7 (called the bait), partners in pGBKT7 (called the prey); yeast strain AH109; selection on SD/-Trp-Leu, then growth on SD/-Trp-Leu-His-Ade

binding, binds:
B1, B2, B3

These are yes or no findings as the source states them, for the method shown. A result given as binding can be weak or reduced; the word gives no strength.
